Assay results taken from the supplement of paper PMC10849652.
Some of the results follow.

The chains behind the UniProt entries cited, without tags or fusion partners. Where a name states a change or a piece, a line headed by the entry shows the natural chain unless it says otherwise.
UniProt O14713: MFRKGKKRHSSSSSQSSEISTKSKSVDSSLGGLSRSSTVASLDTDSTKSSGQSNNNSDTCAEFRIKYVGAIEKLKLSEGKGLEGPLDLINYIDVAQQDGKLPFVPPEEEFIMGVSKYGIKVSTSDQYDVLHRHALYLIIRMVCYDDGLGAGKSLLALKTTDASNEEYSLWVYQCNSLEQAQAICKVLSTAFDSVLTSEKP
UniProt Q8TB96: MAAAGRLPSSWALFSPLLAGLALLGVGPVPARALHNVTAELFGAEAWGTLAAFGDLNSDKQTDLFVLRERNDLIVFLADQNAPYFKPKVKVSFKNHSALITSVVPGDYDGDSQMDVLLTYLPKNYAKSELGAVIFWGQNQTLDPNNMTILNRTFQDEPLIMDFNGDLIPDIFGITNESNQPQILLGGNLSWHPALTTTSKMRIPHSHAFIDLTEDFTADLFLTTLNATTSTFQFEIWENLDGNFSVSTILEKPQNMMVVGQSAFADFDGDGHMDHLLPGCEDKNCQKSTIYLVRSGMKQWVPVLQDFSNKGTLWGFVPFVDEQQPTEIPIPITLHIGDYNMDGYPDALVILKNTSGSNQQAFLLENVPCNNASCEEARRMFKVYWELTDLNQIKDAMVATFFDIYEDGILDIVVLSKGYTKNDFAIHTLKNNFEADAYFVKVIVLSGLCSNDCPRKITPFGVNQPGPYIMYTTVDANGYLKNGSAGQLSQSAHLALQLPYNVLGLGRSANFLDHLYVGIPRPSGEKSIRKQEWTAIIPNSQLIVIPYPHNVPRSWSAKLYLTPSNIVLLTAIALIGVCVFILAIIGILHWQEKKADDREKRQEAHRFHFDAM
UniProt Q9H1K1: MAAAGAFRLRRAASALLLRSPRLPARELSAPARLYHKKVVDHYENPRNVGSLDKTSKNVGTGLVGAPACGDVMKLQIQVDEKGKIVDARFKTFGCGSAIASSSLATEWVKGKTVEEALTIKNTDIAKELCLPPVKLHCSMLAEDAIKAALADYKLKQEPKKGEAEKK
UniProt Q7LBC6: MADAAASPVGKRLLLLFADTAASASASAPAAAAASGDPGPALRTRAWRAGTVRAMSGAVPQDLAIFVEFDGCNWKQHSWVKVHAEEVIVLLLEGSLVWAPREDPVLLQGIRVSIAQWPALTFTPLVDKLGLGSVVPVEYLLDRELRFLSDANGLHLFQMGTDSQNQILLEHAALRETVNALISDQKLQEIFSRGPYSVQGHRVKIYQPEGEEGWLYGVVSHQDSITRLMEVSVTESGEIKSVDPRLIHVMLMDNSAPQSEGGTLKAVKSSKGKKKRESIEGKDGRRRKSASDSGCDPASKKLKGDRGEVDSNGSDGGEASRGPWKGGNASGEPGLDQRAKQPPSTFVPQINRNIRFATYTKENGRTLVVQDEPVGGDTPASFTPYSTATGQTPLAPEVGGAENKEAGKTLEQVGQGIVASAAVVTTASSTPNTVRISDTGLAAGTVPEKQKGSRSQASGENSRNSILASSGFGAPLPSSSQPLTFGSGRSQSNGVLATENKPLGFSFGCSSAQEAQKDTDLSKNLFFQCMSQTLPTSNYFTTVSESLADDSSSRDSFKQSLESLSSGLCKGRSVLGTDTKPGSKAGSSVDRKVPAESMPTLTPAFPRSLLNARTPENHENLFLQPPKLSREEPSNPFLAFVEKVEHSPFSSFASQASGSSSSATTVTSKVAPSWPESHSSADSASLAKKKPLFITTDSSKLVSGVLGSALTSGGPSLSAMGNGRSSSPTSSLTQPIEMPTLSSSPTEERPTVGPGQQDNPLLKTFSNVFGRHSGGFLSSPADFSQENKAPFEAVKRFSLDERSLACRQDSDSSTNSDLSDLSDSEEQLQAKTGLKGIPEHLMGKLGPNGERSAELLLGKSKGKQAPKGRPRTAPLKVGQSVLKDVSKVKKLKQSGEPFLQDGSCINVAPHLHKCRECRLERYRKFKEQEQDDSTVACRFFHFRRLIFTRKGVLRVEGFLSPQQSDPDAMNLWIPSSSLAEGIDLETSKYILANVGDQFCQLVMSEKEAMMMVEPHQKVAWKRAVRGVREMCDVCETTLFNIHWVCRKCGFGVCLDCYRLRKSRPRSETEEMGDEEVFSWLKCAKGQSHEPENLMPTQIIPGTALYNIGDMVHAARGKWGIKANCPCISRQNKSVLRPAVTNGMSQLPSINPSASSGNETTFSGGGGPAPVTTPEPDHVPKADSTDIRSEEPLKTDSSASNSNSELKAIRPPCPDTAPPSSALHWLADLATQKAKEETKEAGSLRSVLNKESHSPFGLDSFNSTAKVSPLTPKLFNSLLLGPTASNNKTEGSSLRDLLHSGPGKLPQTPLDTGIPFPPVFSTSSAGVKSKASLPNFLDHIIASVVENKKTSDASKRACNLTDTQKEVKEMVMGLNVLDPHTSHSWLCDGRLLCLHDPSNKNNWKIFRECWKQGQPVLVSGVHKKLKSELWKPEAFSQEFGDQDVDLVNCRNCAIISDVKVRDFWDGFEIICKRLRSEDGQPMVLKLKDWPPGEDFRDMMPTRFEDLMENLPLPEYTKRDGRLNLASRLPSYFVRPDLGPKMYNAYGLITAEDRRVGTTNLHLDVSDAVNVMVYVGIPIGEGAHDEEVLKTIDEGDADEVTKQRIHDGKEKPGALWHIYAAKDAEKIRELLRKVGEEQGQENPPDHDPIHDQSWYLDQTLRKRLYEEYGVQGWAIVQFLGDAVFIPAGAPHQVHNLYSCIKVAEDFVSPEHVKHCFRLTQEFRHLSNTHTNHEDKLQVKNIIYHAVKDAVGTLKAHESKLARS
UniProt Q9Y6Y0: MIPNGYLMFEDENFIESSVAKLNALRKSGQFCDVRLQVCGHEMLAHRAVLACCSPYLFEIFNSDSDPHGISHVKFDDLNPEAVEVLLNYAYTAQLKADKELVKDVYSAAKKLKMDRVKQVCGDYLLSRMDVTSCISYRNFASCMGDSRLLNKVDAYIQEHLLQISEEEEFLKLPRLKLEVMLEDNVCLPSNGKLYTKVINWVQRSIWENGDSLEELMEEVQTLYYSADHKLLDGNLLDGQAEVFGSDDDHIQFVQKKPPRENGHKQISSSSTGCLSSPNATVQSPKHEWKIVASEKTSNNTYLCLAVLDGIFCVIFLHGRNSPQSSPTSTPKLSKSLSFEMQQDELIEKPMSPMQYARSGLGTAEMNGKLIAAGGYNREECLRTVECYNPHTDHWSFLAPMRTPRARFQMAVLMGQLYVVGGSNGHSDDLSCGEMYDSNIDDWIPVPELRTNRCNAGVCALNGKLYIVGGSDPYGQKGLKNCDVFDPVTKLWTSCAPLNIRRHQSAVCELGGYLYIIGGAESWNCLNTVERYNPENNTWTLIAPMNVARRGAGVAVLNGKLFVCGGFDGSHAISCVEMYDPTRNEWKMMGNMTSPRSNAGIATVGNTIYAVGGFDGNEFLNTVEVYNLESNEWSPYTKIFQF
UniProt Q14624: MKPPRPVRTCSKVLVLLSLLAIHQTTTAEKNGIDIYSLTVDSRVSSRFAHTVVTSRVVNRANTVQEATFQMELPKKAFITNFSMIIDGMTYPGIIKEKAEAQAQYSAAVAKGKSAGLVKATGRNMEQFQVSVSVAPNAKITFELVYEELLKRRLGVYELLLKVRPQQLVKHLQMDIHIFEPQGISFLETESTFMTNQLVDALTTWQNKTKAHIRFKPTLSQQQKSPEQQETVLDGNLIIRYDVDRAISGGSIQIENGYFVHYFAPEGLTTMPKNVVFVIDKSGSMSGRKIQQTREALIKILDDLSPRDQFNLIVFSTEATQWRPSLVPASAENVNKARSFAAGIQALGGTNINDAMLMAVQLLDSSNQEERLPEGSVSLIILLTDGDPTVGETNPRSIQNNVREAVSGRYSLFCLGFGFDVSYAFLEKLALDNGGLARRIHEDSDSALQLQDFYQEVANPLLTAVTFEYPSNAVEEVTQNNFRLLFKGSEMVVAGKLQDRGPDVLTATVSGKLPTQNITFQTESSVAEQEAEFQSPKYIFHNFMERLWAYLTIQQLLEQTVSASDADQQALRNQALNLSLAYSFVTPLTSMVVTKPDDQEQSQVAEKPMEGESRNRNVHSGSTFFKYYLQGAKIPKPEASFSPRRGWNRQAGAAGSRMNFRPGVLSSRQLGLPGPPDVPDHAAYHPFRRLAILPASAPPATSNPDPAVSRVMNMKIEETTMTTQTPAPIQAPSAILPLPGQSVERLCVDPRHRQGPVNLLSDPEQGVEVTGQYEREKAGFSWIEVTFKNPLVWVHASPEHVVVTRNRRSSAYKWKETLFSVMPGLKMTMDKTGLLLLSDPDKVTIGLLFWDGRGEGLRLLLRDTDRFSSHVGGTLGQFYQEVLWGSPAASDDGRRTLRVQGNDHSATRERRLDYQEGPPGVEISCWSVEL
UniProt Q9NVH2, whole entry, looked up: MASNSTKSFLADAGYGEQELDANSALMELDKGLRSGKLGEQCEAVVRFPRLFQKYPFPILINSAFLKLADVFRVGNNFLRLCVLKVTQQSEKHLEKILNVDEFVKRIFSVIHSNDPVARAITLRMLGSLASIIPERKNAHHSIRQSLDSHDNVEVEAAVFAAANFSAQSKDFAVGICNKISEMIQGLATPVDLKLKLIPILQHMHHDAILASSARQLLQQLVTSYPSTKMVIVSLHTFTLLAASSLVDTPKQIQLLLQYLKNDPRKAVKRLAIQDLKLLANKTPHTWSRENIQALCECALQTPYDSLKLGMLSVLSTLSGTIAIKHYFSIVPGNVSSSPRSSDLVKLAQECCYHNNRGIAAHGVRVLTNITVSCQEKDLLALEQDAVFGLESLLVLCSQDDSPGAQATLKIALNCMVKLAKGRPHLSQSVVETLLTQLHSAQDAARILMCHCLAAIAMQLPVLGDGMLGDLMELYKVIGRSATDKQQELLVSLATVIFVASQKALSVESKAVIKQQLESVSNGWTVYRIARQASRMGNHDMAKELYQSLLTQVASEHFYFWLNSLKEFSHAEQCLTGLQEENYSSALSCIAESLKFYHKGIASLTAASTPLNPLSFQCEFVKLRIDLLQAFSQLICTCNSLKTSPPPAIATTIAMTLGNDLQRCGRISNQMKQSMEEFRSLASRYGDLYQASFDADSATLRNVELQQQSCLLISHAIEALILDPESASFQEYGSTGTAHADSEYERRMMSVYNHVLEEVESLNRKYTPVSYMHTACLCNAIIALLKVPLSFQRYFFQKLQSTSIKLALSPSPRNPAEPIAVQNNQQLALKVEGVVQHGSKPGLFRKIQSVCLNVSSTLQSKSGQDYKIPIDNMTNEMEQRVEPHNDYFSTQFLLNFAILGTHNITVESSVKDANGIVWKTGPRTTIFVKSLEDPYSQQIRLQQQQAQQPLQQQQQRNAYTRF
UniProt Q86U28: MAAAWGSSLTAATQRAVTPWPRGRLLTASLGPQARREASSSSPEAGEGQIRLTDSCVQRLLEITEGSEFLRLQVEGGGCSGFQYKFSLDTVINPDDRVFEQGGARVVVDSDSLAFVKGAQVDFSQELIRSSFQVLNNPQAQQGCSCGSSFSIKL
UniProt Q9Y2K7: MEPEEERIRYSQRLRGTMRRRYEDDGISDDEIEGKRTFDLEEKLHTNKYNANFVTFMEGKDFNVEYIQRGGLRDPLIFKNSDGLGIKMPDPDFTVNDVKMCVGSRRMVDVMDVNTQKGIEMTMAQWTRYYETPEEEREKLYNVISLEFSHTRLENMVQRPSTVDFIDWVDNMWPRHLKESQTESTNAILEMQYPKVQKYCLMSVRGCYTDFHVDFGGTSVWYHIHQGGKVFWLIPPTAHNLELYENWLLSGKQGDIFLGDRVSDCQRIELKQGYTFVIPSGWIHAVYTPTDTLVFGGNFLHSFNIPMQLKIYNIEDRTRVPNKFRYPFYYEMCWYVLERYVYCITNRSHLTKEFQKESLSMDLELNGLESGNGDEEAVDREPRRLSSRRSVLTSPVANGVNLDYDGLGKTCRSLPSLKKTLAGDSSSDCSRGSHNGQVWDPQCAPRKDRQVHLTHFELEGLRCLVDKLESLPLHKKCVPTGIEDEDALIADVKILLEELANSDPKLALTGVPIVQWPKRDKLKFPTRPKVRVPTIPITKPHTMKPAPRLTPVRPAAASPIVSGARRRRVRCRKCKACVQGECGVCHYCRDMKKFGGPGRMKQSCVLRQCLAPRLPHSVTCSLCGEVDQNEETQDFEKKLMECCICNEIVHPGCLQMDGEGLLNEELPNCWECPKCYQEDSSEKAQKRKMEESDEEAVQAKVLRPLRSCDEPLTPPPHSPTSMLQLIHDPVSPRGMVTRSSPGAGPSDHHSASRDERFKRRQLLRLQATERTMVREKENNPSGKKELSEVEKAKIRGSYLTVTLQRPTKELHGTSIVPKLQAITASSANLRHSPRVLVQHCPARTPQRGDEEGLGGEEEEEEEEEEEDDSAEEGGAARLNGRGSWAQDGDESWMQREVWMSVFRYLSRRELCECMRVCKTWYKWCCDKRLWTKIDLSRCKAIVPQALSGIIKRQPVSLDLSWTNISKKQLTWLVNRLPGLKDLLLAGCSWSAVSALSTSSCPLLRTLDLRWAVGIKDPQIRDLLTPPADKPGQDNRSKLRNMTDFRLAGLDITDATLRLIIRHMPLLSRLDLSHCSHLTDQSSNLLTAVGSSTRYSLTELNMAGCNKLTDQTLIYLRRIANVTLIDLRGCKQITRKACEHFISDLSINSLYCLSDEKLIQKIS

How the values were obtained:
Test in all cases: log2 fold change, soluble protein after heating vs DMSO (PISA); higher = thermal stabilisation; K562 lysate, 10 uM; active = over 0.2 and 3.5 SD of the protein, either way, in both replicates (recomputed)
erlotinib = compound: C#Cc1cccc(Nc2ncnc3cc(OCCOC)c(OCCOC)cc23)c1 [erlotinib]
Procedure, shortened: (§1)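 Quantification was by TMTpro 16plex LC-MS/MS with equalised channel sums, applied to the supernatant after 21,000xg for 90 min. Samples were crude K562 extract at 1 mg/mL protein in PBS pH 7.4 with 1 mM MgCl2, treated with 10 μM compound for 30 min, heated for 3 min across 48°C-58°C, pooled and brought to 0.5% NP-40 at 4°C. Values are log-two fold changes in thermal stability relative to solvent controls, from duplicates.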

[1] = compound: C/C(=N\NC(=O)C1=CC(=CC=C1)S(=O)(=O)N2CCOCC2)/C3=C(C=CC(=C3)Cl)O
Procedure, shortened: as §1

[2] = compound: C1=CC(=CC=C1C2=NC3=C(N2)C=C(C=C3)C(=O)N)OC4=CC=C(C=C4)Cl
Procedure, shortened: as §1

[3] = compound: C1=CC2=C(C=CC(=C2)/C=C\3/C(=O)NC(=NCC4=CC=CS4)S3)N=C1
Procedure, shortened: as §1

[4] = compound: C1=CC2=NC=CN=C2C=C1/C=C/3\C(=O)NC(=O)S3
Procedure, shortened: as §1

[5] = compound: C1=CC=C(C=C1)C2=NC(=C(N2)C3=CC=NC=C3)C4=CC(=C(C=C4)Cl)O
Procedure, shortened: as §1

[6] = compound: C1=CC=C2C(=C1)C3=NNC4=CC=CC(=C43)C2=O
Procedure, shortened: as §1

[7] = compound: C1CCN(C1)C(=O)NC2=CC=CC(=C2)NC3=NC=C(C(=N3)NCCC4=CN=CN4)Br
Procedure, shortened: as §1

[8] = compound: C1CN(CCC1(CC2=CC=C(C=C2)Cl)N)C3=NC=NC4=C3C=CN4
Procedure, shortened: as §1

IRAK-1-4 Inhibitor I = compound: C1COCCN1CCN2C3=CC=CC=C3N=C2NC(=O)C4=CC(=CC=C4)[N+](=O)[O-] [IRAK-1-4 Inhibitor I]
Procedure, shortened: as §1

Measured: log2 fold change

ITGB1BP1 (UniProt O14713)
inactive: erlotinib 0 | [1] -0.041 | [2] -0.065 | [3] 0.086 | [4] -0.103 | [5] -0.018 | [6] -0.026 | [7] 0.053 | [8] 0.205 | IRAK-1-4 Inhibitor I -0.054

ITFG1 (UniProt Q8TB96)
inactive: erlotinib -0.037 | [1] -0.129 | [2] 0.044 | [3] -0.026 | [4] -0.003 | [5] 0.011 | [6] -0.008 | [7] -0.016 | [8] -0.011 | IRAK-1-4 Inhibitor I 0.038

ISCU (UniProt Q9H1K1)
inactive: erlotinib -0.043 | [1] 0.021 | [2] 0.014 | [3] -0.023 | [4] -0.009 | [5] -0.013 | [6] 0.023 | [7] 0.047 | [8] -0.023 | IRAK-1-4 Inhibitor I 0.002

KDM3B (UniProt Q7LBC6)
inactive: erlotinib 0.014 | [1] -0.05 | [2] 0.011 | [3] 0.024 | [4] -0.032 | [5] -0.006 | [6] -0.012 | [7] -0.012 | [8] 0.003 | IRAK-1-4 Inhibitor I 0.027

IPO4 isoform 2 (UniProt Q8TEX9)
inactive: erlotinib 0.013 | [1] -0.012 | [2] 0.002 | [3] 0.007 | [4] 0.041 | [5] -0.045 | [6] -0.008 | [7] -0.001 | [8] 0.024 | IRAK-1-4 Inhibitor I 0.029

INTS9 (UniProt Q9NV88)
inactive: erlotinib 0.012 | [1] -0.1 | [2] 0.002 | [3] -0.041 | [4] -0.02 | [5] -0.016 | [6] 0.001 | [7] -0.066 | [8] 0.007 | IRAK-1-4 Inhibitor I 0.016

3 successive records out of the list so far:
ITGB1BP1 (UniProt O14713)
inactive: erlotinib 0 | [1] -0.041 | [2] -0.065 | [3] 0.086 | [4] -0.103 | [5] -0.018 | [6] -0.026 | [7] 0.053 | [8] 0.205 | IRAK-1-4 Inhibitor I -0.054

ITFG1 (UniProt Q8TB96)
inactive: erlotinib -0.037 | [1] -0.129 | [2] 0.044 | [3] -0.026 | [4] -0.003 | [5] 0.011 | [6] -0.008 | [7] -0.016 | [8] -0.011 | IRAK-1-4 Inhibitor I 0.038

ISCU (UniProt Q9H1K1)
inactive: erlotinib -0.043 | [1] 0.021 | [2] 0.014 | [3] -0.023 | [4] -0.009 | [5] -0.013 | [6] 0.023 | [7] 0.047 | [8] -0.023 | IRAK-1-4 Inhibitor I 0.002

Additional entries

IVNS1ABP (UniProt Q9Y6Y0)
inactive: erlotinib 0.004 | [1] 0.051 | [2] -0.002 | [3] 0.013 | [4] -0.066 | [5] 0.007 | [6] 0.013 | [7] 0 | [8] 0.005 | IRAK-1-4 Inhibitor I 0.009

ITIH4 (UniProt Q14624)
inactive: erlotinib 0.048 | [1] 0.099 | [2] 0.036 | [3] 0.028 | [4] -0.041 | [5] 0.053 | [6] 0.035 | [7] -0.02 | [8] 0.034 | IRAK-1-4 Inhibitor I 0.036

KBTBD7 (UniProt Q8WVZ9)
inactive: erlotinib -0.037 | [1] -0.238 | [2] -0.085 | [3] -0.011 | [4] 0.155 | [5] -0.044 | [6] -0.005 | [7] -0.075 | [8] -0.047 | IRAK-1-4 Inhibitor I 0.034

INTS7 (UniProt Q9NVH2)
active: [4] 0.441
inactive: erlotinib 0.076 | [1] -0.183 | [2] -0.01 | [3] 0.041 | [5] -0.044 | [6] 0.026 | [7] -0.019 | [8] 0.035 | IRAK-1-4 Inhibitor I 0

ISCA2 (UniProt Q86U28)
inactive: erlotinib -0.021 | [1] 0.104 | [2] 0.028 | [3] 0.014 | [4] -0.046 | [5] 0.031 | [6] 0.05 | [7] -0.006 | [8] 0.025 | IRAK-1-4 Inhibitor I 0.024

IST1 (UniProt P53990)
inactive: erlotinib -0.004 | [1] 0.044 | [2] -0.004 | [3] -0.007 | [4] -0.001 | [5] -0.003 | [6] -0.004 | [7] 0.003 | [8] 0.002 | IRAK-1-4 Inhibitor I -0.009

IRGQ (UniProt Q8WZA9)
inactive: erlotinib 0.02 | [1] 0.038 | [2] 0.004 | [3] 0 | [4] -0.005 | [5] 0 | [6] -0.009 | [7] -0.021 | [8] 0.024 | IRAK-1-4 Inhibitor I -0.01

KDM2A (UniProt Q9Y2K7)
inactive: erlotinib -0.141 | [1] -0.055 | [2] -0.062 | [3] 0.047 | [4] 0.067 | [5] 0.014 | [6] 0.003 | [7] 0.01 | [8] -0.072 | IRAK-1-4 Inhibitor I -0.071

IRF2BPL (UniProt Q9H1B7)
inactive: erlotinib 0.024 | [1] 0.102 | [2] 0.037 | [3] 0.022 | [4] -0.034 | [5] 0.002 | [6] -0.008 | [7] -0.002 | [8] 0.027 | IRAK-1-4 Inhibitor I -0.027
